Test results published in PubChem BioAssay AID493014 (National Center for Advancing Translational Sciences (NCATS), 2011).
The list shows a part of the results. The main result of the screen is listed elsewhere. These columns were measured beside it and carry no call. The list favours compounds with an active or inconclusive main result. The note in brackets gives the kind of curve behind each potency; many fits are weak.

Experiment: qHTS Assay to Find Inhibitors of Chronic Active B-Cell Receptor Signaling
Settings: ABC-DLBCL IkBa-CBG/CBR reporter, luminescence ratio (green luciferase fused to IkBa over red control in TMD8 lymphoma cells), 4 h
Summary of the method: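 Compounds up to 46 uM were incubated four hours with TMD8 cells whose green CBG68 luciferase is fused to IkappaBalpha; red CBR luminescence normalised the signal, and concentration-effect curves were fitted to fusion, red and ratio data.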

[1] = measured here: CBR red luminescence, cell number
[2] = measured here: IkBa-CBG green luminescence

Structure (SMILES) | AC50 [1] | AC50 [2]
Cc1nc2nc(SCC(=O)Nc3cccc(F)c3)[nH]c2cc1Br | 1.58 µM [falling, full curve, poor fit] | 
c1ccc2sc(-c3ccncc3)nc2c1 | 1.78 µM [rising, partial curve, poor fit] | 
CCCCc1ccc(NS(=O)(=O)c2cccs2)cc1 | 7.08 µM [rising, partial curve, poor fit] | 
CC(=O)c1cc(F)c(N2CCN(C(=O)COc3ccccc3F)CC2)cc1C | 2.91 µM [rising, partial curve, poor fit] | 
COc1cccc(OCc2nc(-c3ccc(Br)o3)no2)c1 | 4.47 µM [rising, full curve, poor fit] | 
CCc1ccc(-c2nc(CSCC(=O)NCc3ccco3)c(C)o2)cc1 | 15.8 µM [falling, single point] | 
Cc1ccc(NC(=O)CN2C(=O)N/C(=C/c3ccccc3OCc3cccc(C(=O)O)c3)C2=O)cc1 | 7.94 µM [rising, partial curve] | 
CC(C)Cc1cc(C(=O)NCc2cccs2)no1 | 16.4 µM [falling, partial curve] | 
COc1ccc(COc2cc(-c3cccc(OC)c3)nc3ccc(NC(=O)c4ccc(N(C)C)cc4)cc23)cc1 | 29.1 µM [rising, single point] | 20.6 µM [falling, single point]
COc1cc(/C=N/NC(=O)c2ccccc2Cl)ccc1Oc1ccc([N+](=O)[O-])cn1 | 11.2 µM [falling, single point] | 
Cc1ccc2nsnc2c1S(=O)(=O)N1CCN(C(=O)C2CCCO2)CC1 (centres undefined) | 18.4 µM [rising, partial curve, poor fit] | 
O=C(O)CNS(=O)(=O)c1cccc2nsnc12 | 4.61 µM [rising, full curve, poor fit] | 
Cc1nn(C)cc1CN1CCC(n2nccc2NC(=O)CCCc2ccccc2)CC1 | 1.26 µM [rising, full curve] | 
CCn1c(/C=N/Nc2ccc(C(=O)O)cc2)nc2ccccc21 | 0.0259 µM [falling, full curve, poor fit] | 1.03 µM [rising, full curve, poor fit]
NC(=O)C1CC12c1ccccc1-c1ccccc12 (centres undefined) | 4.47 µM [rising, partial curve, poor fit] | 
Cc1ccc(C(=O)OCc2cc(=O)n3c(C)csc3n2)s1 | 4.11 µM [rising, partial curve] | 
COc1ccc(-c2cc(C(=O)N3CCOCC3)c3cc(C)ccc3n2)cc1 | 0.058 µM [falling, full curve, poor fit] | 

Arranged by SMILES length (low to high): part of the list above
Structure (SMILES) | AC50 [1] | AC50 [2]
CCCCc1ccc(NS(=O)(=O)c2cccs2)cc1 | 7.08 µM [rising, partial curve, poor fit] | 
Cc1ccc(C(=O)OCc2cc(=O)n3c(C)csc3n2)s1 | 4.11 µM [rising, partial curve] | 
CCn1c(/C=N/Nc2ccc(C(=O)O)cc2)nc2ccccc21 | 0.0259 µM [falling, full curve, poor fit] | 1.03 µM [rising, full curve, poor fit]
